Measurements: the supplement of paper PMC10849652
Some of the results follow.

Chains of the proteins cited; added tags and fusions are not shown. Lines headed by an entry give the natural chain unless they say otherwise; changes in a name come on top.
UniProt Q9NSC7: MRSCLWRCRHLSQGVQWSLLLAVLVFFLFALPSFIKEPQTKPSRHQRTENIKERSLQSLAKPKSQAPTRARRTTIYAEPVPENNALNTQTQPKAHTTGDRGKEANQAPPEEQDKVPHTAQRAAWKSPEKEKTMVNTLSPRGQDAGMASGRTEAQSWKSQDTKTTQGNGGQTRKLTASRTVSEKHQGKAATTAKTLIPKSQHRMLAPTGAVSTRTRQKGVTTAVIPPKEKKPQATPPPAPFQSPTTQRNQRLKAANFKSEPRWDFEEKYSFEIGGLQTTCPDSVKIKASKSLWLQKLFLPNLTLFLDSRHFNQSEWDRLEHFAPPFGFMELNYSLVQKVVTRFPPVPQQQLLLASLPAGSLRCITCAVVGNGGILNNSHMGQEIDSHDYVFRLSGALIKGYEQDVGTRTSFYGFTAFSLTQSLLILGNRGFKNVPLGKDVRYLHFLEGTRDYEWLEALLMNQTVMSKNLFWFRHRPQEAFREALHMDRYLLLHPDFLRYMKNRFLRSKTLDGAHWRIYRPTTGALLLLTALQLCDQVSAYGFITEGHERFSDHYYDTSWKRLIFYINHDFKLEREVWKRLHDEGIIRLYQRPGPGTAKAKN
UniProt Q8TCT7: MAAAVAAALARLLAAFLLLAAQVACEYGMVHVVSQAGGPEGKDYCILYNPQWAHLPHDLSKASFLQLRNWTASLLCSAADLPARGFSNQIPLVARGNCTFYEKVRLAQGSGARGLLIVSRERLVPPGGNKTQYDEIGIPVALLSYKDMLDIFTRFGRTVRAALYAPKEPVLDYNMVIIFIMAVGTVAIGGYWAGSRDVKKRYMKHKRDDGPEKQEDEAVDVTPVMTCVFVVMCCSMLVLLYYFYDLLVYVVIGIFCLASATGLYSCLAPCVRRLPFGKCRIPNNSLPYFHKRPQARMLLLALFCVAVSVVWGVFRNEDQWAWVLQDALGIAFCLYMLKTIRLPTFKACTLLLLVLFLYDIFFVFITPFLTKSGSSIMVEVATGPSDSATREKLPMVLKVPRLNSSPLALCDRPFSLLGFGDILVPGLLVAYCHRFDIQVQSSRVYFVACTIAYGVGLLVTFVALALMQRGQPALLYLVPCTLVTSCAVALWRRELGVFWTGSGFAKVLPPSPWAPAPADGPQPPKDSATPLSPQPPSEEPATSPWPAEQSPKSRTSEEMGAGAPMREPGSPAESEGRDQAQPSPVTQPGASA
UniProt P05455: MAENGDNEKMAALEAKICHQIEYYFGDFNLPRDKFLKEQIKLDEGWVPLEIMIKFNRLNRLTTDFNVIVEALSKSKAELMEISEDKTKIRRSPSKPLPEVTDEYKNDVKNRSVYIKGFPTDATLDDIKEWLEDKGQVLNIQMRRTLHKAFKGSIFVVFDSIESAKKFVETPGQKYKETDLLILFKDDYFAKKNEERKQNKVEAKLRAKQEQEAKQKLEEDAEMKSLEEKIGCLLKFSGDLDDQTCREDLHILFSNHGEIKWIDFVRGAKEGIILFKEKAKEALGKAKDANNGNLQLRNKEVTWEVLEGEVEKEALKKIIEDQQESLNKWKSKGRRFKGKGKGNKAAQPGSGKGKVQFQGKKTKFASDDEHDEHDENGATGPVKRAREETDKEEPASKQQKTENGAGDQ
UniProt Q05519: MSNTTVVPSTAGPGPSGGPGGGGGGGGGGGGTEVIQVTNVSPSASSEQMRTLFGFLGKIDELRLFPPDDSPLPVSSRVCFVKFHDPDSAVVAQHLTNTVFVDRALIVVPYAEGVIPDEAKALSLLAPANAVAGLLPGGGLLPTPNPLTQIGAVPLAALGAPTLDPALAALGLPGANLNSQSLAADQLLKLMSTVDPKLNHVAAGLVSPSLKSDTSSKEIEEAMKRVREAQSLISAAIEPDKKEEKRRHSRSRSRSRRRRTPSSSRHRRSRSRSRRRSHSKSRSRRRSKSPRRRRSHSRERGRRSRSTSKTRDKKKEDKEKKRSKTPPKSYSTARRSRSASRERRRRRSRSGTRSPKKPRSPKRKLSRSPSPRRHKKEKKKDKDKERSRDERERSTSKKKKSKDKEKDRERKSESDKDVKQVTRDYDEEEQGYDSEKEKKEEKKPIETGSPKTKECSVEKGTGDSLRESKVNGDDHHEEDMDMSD
UniProt Q9Y5M8: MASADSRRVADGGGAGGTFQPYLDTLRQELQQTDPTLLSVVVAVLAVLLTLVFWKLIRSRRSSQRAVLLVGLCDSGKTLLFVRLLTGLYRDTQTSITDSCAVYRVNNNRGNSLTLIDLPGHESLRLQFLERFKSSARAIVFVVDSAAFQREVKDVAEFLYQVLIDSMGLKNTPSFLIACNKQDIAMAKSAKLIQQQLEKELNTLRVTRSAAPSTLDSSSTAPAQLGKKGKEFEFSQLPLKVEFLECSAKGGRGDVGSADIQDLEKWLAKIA
UniProt P30626: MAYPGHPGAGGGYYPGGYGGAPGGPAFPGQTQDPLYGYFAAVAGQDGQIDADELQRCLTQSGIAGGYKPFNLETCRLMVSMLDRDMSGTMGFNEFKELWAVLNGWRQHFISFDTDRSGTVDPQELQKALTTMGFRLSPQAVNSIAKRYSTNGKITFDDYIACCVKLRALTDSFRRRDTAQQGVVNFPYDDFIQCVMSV
UniProt Q9NZD8: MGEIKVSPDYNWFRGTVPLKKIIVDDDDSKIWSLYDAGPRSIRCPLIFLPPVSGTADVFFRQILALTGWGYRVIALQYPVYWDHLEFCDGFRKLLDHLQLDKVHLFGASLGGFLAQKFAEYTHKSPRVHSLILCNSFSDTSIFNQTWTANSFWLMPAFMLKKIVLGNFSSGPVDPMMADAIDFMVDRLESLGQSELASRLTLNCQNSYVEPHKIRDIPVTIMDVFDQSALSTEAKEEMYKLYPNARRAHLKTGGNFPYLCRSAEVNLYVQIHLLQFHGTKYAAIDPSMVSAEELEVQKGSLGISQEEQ
UniProt Q9C004: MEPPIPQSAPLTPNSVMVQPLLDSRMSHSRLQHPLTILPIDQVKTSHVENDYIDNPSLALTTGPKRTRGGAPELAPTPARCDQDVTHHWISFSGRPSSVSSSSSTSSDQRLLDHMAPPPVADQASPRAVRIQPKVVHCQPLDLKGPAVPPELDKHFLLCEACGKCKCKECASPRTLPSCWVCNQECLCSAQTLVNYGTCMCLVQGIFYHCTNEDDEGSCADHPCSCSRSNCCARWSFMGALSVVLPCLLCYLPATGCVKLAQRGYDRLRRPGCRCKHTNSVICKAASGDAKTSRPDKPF
UniProt Q8WVM7: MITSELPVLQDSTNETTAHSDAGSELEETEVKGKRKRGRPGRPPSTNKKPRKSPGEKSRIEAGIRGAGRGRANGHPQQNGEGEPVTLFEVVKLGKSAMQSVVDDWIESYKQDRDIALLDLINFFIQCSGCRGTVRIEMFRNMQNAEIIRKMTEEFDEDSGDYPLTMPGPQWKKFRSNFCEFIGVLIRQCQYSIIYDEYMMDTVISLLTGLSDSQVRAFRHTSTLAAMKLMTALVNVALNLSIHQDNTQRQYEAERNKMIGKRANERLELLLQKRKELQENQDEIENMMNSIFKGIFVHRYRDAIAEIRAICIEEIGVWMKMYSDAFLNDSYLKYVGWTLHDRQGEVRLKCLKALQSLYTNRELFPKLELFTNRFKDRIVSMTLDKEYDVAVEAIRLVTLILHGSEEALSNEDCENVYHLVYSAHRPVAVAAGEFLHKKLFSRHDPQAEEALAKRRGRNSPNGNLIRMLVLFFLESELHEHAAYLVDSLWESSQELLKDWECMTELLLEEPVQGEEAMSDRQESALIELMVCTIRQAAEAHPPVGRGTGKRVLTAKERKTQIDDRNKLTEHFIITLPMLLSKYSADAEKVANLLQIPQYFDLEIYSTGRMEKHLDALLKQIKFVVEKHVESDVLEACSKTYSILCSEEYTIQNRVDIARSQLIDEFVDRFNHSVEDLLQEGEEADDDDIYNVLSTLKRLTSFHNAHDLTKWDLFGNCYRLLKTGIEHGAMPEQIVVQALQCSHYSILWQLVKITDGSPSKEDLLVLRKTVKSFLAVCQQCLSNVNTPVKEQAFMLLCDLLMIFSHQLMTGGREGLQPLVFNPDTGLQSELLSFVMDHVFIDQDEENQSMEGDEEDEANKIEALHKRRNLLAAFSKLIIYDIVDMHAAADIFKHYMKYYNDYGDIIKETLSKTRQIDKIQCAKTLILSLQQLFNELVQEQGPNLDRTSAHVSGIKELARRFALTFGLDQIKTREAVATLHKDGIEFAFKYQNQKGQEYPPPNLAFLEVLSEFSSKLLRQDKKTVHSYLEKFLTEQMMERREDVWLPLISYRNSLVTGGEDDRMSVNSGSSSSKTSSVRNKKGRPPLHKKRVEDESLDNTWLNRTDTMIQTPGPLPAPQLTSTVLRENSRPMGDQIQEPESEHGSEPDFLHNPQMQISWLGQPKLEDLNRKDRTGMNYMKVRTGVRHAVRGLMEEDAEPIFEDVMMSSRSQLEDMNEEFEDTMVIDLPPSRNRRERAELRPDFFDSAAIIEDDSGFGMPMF
UniProt Q658P3: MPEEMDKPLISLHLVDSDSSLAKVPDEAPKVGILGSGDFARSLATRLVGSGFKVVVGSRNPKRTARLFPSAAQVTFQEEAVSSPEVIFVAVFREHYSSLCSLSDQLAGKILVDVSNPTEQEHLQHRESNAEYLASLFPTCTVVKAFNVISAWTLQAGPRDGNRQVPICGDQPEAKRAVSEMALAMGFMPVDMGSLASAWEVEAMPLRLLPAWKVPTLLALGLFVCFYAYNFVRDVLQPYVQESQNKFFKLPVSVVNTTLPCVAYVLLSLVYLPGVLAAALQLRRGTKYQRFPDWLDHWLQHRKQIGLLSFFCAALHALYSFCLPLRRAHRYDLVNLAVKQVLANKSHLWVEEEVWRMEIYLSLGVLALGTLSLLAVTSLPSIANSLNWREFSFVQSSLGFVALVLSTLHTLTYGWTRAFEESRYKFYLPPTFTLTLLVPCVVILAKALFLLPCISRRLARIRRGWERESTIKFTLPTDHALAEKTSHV
UniProt Q9UQ90: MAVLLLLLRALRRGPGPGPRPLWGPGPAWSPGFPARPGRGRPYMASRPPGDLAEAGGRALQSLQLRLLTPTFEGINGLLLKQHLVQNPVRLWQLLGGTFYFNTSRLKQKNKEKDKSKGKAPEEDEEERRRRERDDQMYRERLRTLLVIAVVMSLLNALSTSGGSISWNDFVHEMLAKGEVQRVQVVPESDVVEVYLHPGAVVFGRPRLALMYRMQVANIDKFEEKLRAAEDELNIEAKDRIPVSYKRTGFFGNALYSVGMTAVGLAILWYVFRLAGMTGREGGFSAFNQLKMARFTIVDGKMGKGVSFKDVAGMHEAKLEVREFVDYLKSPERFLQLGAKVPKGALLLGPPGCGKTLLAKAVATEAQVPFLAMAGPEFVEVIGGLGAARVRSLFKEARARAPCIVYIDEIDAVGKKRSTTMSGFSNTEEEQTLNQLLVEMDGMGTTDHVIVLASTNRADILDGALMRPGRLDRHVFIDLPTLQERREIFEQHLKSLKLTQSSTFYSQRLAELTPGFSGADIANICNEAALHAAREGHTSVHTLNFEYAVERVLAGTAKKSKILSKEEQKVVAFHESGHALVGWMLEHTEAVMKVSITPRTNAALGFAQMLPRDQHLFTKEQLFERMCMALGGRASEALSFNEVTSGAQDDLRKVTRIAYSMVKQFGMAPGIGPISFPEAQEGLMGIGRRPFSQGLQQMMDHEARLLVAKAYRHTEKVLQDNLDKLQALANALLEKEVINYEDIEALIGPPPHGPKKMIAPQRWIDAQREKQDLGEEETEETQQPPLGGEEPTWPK
UniProt P35270: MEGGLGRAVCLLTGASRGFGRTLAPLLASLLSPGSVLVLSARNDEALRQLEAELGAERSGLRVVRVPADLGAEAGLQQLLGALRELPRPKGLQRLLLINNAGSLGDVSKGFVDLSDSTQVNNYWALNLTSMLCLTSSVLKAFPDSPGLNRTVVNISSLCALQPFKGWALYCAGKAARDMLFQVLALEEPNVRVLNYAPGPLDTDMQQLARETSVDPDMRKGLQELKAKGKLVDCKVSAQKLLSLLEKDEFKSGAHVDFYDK
UniProt Q16385, whole entry, looked up: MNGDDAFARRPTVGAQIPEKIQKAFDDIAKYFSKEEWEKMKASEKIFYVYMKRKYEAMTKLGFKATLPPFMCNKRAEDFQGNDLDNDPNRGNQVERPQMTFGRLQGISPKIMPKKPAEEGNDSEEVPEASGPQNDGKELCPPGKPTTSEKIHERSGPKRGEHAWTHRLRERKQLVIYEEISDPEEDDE
UniProt Q9HBM1: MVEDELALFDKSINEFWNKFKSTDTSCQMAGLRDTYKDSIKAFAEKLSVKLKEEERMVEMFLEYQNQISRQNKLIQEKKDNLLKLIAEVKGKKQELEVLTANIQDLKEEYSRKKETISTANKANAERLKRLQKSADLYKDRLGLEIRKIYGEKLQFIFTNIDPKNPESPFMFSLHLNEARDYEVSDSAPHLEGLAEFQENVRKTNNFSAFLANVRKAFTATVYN

Experiments:
Experiment in all cases: log2 fold change, soluble protein after heating vs DMSO (PISA); higher = thermal stabilisation; K562 cells, 10 uM, 30 min; active = over 0.2 and 3.5 SD of the protein, either way, in both replicates (recomputed)
[1] = compound: CC1=C(C=C(C=C1)NC(=O)C2=CC(=CC=C2)C(C)(C)C#N)NC3=CC4=C(C=C3)N=CN(C4=O)C
Method in brief: (§1)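 Values are thermal stability changes relative to control samples and are taken from duplicates. They are stated as log2 fold changes. Before quantification by TMTpro 16plex LC-MS/MS with equalised channel sums, K562 cells at 2×10^6 cells/mL were treated with 10 μM compound for 30 min, heated in aliquots for 3 min across 48°C-58°C, pooled, extracted in PBS with 0.5% NP-40 at 4°C, and centrifuged at 21,000xg for 90 min to give the soluble supernatant.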

[2] = compound: CC1=C(C=C(C=C1)NC(=O)C2=CC(=CC=C2)N(C)C)NC(=O)C3=CC=C(C=C3)O
Method in brief: as §1

[3] = compound: CC1=CC=C(C=C1)SC2=C3C=C(SC3=CN=C2)C(=O)N
Method in brief: as §1

[4] = compound: CC1=NC(=CC=C1)C2=C(N=C(N2)C(C)(C)C)C3=CC4=NC=CN=C4C=C3
Method in brief: as §1

Nexturastat A = compound: CCCCN(Cc1ccc(C(=O)NO)cc1)C(=O)Nc1ccccc1 [Nexturastat A]
Method in brief: as §1

vemurafenib = compound: CCCS(=O)(=O)Nc1ccc(F)c(C(=O)c2c[nH]c3ncc(-c4ccc(Cl)cc4)cc23)c1F [vemurafenib]
Method in brief: as §1

[5] = compound: CCCS(=O)(=O)Nc1ccc(F)c(C(=O)c2c[nH]c3ncc(Cl)cc23)c1F
Method in brief: as §1

[6] = compound: CCCc1cc(C)[nH]c(=O)c1CNC(=O)c1cc(-c2ccnc(N3CCN(C)CC3)c2)cc2c1cnn2C(C)C
Method in brief: as §1

givinostat = compound: CCN(CC)Cc1ccc2cc(COC(=O)Nc3ccc(C(=O)NO)cc3)ccc2c1 [givinostat]
Method in brief: as §1

barasertib = compound: CCN(CCCOc1ccc2c(Nc3cc(CC(=O)Nc4cccc(F)c4)[nH]n3)ncnc2c1)CCOP(=O)(O)O [barasertib]
Method in brief: as §1

[7] = compound: CC[C@@H]1C(=O)N(C)c2cnc(Nc3ccc(C(=O)NC4CCN(C)CC4)cc3OC)nc2N1C1CCCC1
Method in brief: as §1

volasertib = compound: CC[C@@H]1C(=O)N(C)c2cnc(Nc3ccc(C(=O)N[C@H]4CC[C@H](N5CCN(CC6CC6)CC5)CC4)cc3OC)nc2N1C(C)C [volasertib]
Method in brief: as §1

[8] = compound: CC[C@H](C)N1C=C(C2=C(C=C(C=C21)C3=CN=C(C=C3)N4CCNCC4)C(=O)NCC5=C(C=C(NC5=O)C)C)C
Method in brief: as §1

epoxomicin = compound: CC[C@H](C)[C@@H](C(=O)N[C@@H]([C@@H](C)O)C(=O)N[C@@H](CC(C)C)C(=O)[C@]1(CO1)C)NC(=O)[C@H]([C@@H](C)CC)N(C)C(=O)C [epoxomicin]
Method in brief: as §1

[9] = compound: CCn1c(C(=O)N(C2CC2)C2CC2)cc2c3c(ncn3C)c(Nc3cc(C)n(C)n3)nc21
Method in brief: as §1

[10] = compound: CN(C)CC(=O)Nc1ccc2[nH]c(=O)c3ccccc3c2c1
Method in brief: as §1

rosiglitazone = compound: CN(CCOC1=CC=C(C=C1)C[C@H]2C(=O)NC(=O)S2)C3=CC=CC=N3 (racemic) [rosiglitazone]
Method in brief: as §1

[11] = compound: CN1C2=C(C3=C1C(=O)N(N=C3)CC4=CC(=CC=C4)N)SC(=C2)S(=O)C
Method in brief: as §1

[12] = compound: CCn1cc(-c2ccnc3[nH]c(-c4cccc(CN(C)C)c4)cc23)c(-c2ccc(NC(=O)N(C)C)cc2)n1
Method in brief: as §1

[13] = compound: CN1CCC(CNc2ccc3ncc(-c4cccc(OC(F)(F)F)c4)n3n2)CC1
Method in brief: as §1

Measured: log2 fold change

ST6GALNAC1 (UniProt Q9NSC7)
inactive: [1] 0.009 | [2] -0.012 | [3] 0.079 | [4] -0.015 | Nexturastat A 0.004 | vemurafenib 0.051 | [5] 0.032 | [6] 0.026 | givinostat 0 | barasertib -0.054 | [7] -0.108 | volasertib 0.01 | [8] -0.07 | epoxomicin -0.001 | [9] 0.059 | [10] -0.02 | rosiglitazone 0.059 | [11] 0.004

SPPL2B (UniProt Q8TCT7)
inactive: [1] -0.097 | [2] 0.004 | [3] 0.089 | [4] 0.041 | Nexturastat A 0.029 | vemurafenib -0.05 | [5] -0.018 | [6] 0.021 | givinostat 0.048 | barasertib 0 | [7] 0.039 | volasertib 0 | [8] -0.003 | epoxomicin -0.076 | [12] 0.028 | [10] 0.035 | [11] 0.033 | [13] -0.228

SSB (UniProt P05455)
inactive: [1] -0.02 | [2] 0.024 | [3] -0.026 | [4] 0.024 | Nexturastat A 0.019 | vemurafenib -0.003 | [5] 0.003 | [6] 0.036 | givinostat -0.175 | barasertib 0.074 | [7] -0.154 | volasertib -0.131 | [8] 0.083 | epoxomicin -0.011 | [12] 0.04 | [10] -0.012 | [11] -0.001 | [13] -0.194

SRSF11 (UniProt Q05519)
active: volasertib -0.311
inactive: [1] -0.029 | [2] -0.058 | [3] 0.009 | [4] 0.032 | Nexturastat A -0.022 | vemurafenib 0.007 | [5] 0.087 | [6] 0.053 | givinostat 0.059 | barasertib 0.023 | [7] -0.088 | [8] 0.074 | epoxomicin 0.047 | [12] -0.072 | [10] 0.02 | [11] -0.018 | [13] 0.128

SRPRB (UniProt Q9Y5M8)
inactive: [1] 0.096 | [2] -0.051 | [3] 0.025 | [4] 0.092 | Nexturastat A -0.035 | vemurafenib 0.061 | [5] 0.073 | [6] 0.035 | givinostat -0.127 | barasertib 0.027 | [7] -0.141 | volasertib -0.048 | [8] 0.031 | epoxomicin 0.1 | [12] -0.134 | [10] 0.042 | [11] -0.05 | [13] 0.051

SRI (UniProt P30626)
inactive: [1] 0.035 | [2] -0.092 | [3] 0.094 | [4] 0.037 | Nexturastat A -0.073 | vemurafenib 0.092 | [5] 0.045 | [6] -0.055 | givinostat -0.03 | barasertib 0.107 | [7] 0.008 | volasertib -0.111 | [8] -0.013 | [12] -0.058 | [10] 0.009 | [11] -0.071 | [13] 0.126
active: epoxomicin 0.393

Pulled one by one from the list above (2):
SRSF11 (UniProt Q05519)
active: volasertib -0.311
inactive: [1] -0.029 | [2] -0.058 | [3] 0.009 | [4] 0.032 | Nexturastat A -0.022 | vemurafenib 0.007 | [5] 0.087 | [6] 0.053 | givinostat 0.059 | barasertib 0.023 | [7] -0.088 | [8] 0.074 | epoxomicin 0.047 | [12] -0.072 | [10] 0.02 | [11] -0.018 | [13] 0.128

SPPL2B (UniProt Q8TCT7)
inactive: [1] -0.097 | [2] 0.004 | [3] 0.089 | [4] 0.041 | Nexturastat A 0.029 | vemurafenib -0.05 | [5] -0.018 | [6] 0.021 | givinostat 0.048 | barasertib 0 | [7] 0.039 | volasertib 0 | [8] -0.003 | epoxomicin -0.076 | [12] 0.028 | [10] 0.035 | [11] 0.033 | [13] -0.228

The list continues:

SPG21 (UniProt Q9NZD8)
active: volasertib -0.615 | epoxomicin 0.315
inactive: [1] -0.108 | [2] -0.157 | [3] -0.003 | [4] 0.057 | Nexturastat A 0.016 | vemurafenib 0.044 | [5] -0.044 | [6] 0.057 | givinostat -0.014 | barasertib 0.026 | [7] -0.082 | [8] 0.065 | [12] 0.037 | [10] 0.018 | [11] -0.098 | [13] -0.21

SPRY4 (UniProt Q9C004)
inactive: [1] 0.046 | [2] 0.103 | [3] 0.001 | [4] -0.017 | Nexturastat A -0.026 | vemurafenib -0.01 | [5] 0.005 | [6] -0.063 | givinostat -0.077 | barasertib -0.013 | [7] 0.008 | volasertib -0.036 | [8] -0.04 | epoxomicin 0.031 | [9] 0.016 | [12] -0.015 | [10] -0.042 | rosiglitazone 0.016 | [11] -0.025 | [13] 0.063

STAG1 (UniProt Q8WVM7)
inactive: [1] -0.001 | [2] -0.004 | [3] -0.008 | [4] 0.029 | Nexturastat A 0.048 | vemurafenib 0.011 | [5] 0.07 | [6] 0.016 | givinostat 0.048 | barasertib 0.006 | [7] -0.041 | volasertib -0.162 | [8] 0.028 | epoxomicin 0.062 | [9] -0.023 | [12] 0.026 | [10] -0.005 | rosiglitazone -0.014 | [11] -0.078 | [13] -0.039

SPART (UniProt Q8N0X7)
inactive: [1] 0.007 | [2] -0.027 | [3] 0.055 | [4] -0.014 | Nexturastat A 0.005 | vemurafenib -0.046 | [5] 0.088 | [6] -0.025 | givinostat 0.001 | barasertib 0.037 | [7] -0.031 | [8] -0.005 | epoxomicin -0.123 | [12] 0.014 | [10] 0.069 | [11] -0.035 | [13] -0.052
active: volasertib -0.224

STEAP3 isoform 2 (UniProt Q658P3)
inactive: [1] -0.009 | [2] 0.015 | [3] 0.008 | [4] -0.003 | Nexturastat A -0.05 | vemurafenib -0.027 | [5] 0.007 | [6] -0.025 | givinostat 0.005 | barasertib -0.004 | [7] 0.036 | volasertib -0.013 | [8] -0.023 | epoxomicin 0.01 | [12] -0.084 | [10] 0.002 | [11] 0.041 | [13] -0.096

SPG7 (UniProt Q9UQ90)
inactive: [1] -0.021 | [2] -0.008 | [3] 0.016 | [4] -0.019 | Nexturastat A -0.004 | vemurafenib 0.018 | [5] -0.021 | [6] -0.021 | givinostat -0.023 | barasertib -0.016 | [7] 0.027 | volasertib -0.017 | [8] -0.018 | epoxomicin 0.009 | [9] -0.015 | [12] 0.029 | [10] 0.007 | rosiglitazone -0.011 | [11] -0.011 | [13] -0.085

SPTB isoform 2 (UniProt P11277)
inactive: [1] -0.447 | [2] 0.031 | [3] 0.036 | [4] -0.234 | Nexturastat A 0.068 | vemurafenib 0.018 | [5] 0.107 | [6] 0.167 | givinostat 0.192 | barasertib 0.156 | [7] -0.07 | volasertib -0.323 | [8] 0.159 | epoxomicin -0.175 | [9] -0.06 | [12] 0.06 | [10] 0.143 | rosiglitazone -0.077 | [11] 0.309 | [13] -0.242

STAT5A (UniProt P42229)
inactive: [1] -0.033 | [2] -0.113 | [3] 0.072 | [4] 0.011 | Nexturastat A -0.009 | vemurafenib 0.067 | [5] 0.067 | [6] 0.141 | givinostat 0.156 | barasertib 0.096 | [7] -0.225 | [8] 0.121 | epoxomicin 0.072 | [12] 0.041 | [10] 0.074 | [11] -0.005 | [13] -0.109
active: volasertib -0.633

SPR (UniProt P35270)
active: [9] 0.412
inactive: [1] 0.103 | [2] -0.003 | [3] 0.063 | [4] -0.043 | Nexturastat A -0.069 | vemurafenib -0.019 | [5] 0.019 | [6] 0.009 | givinostat -0.004 | barasertib -0.076 | [7] 0.02 | volasertib 0.165 | [8] 0.013 | epoxomicin -0.054 | [12] 0.073 | [10] 0.153 | [11] -0.184 | [13] 0.012

SSX2 (UniProt Q16385)
inactive: [1] 0.021 | [2] -0.013 | [3] 0.011 | [4] 0.073 | vemurafenib 0.046 | [5] 0.035 | [6] -0.016 | givinostat -0.099 | barasertib 0.018 | [7] -0.046 | volasertib -0.102 | [8] 0.071 | epoxomicin 0.131 | [12] -0.036 | [10] 0.007 | [11] -0.06 | [13] 0.021
active: Nexturastat A -0.254

SPC25 (UniProt Q9HBM1)
inactive: [1] 0.006 | [2] 0.003 | [3] 0.027 | [4] 0.047 | Nexturastat A 0.073 | vemurafenib 0.008 | [5] 0.046 | [6] 0.032 | givinostat -0.023 | barasertib 0.019 | [7] -0.123 | volasertib -0.064 | [8] 0.071 | epoxomicin 0.126 | [9] 0.155 | [12] 0.018 | [10] 0.011 | rosiglitazone 0.031 | [11] -0.008 | [13] -0.046
